Measurements reported in PubChem BioAssay AID1508597 (Cure First, 2020).
This is an unselected part of about 2,100 reagents tested. 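Calls flag viability under 80% in either arm, not effects specific to rucaparib; the reference for percent is not stated.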 Entries without a mark were called inactive. The record does not give: the 100% reference.

Purpose: 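Genes whose silencing sensitises or protects ovarian cancer cells against rucaparib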 (primary screen)
Cell system: human ovarian carcinoma lines grown from tumours: OCI-P5x (papillary serous) and OCI-C5x (clear cell)
Reagent: siRNA pool against human genes, 1.25 pmol siRNA per well
Duration: 72 h or 96 h, depending on the cell culture
Treatment: rucaparib 20 µM (about IC30) or vehicle, present until read-out
Measured: 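Luminescent ATP-based viability assay read 72 or 96 h after transfection, depending on culture, given as normalised percent viability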
Direction: viability, normalised: higher = more viable cells remaining
Rule for the call: 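a well counts as a hit if its normalised viability is under 80 percent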
Calls: active = viability under 80%; inactive = viability 80% or more

| target gene | rucaparib or vehicle | cell line | technical replicate | viability, normalised (%) |
| --- | --- | --- | --- | --- |
| CMPK1 | Rucaparib | OCI-C5x (clear cell) | 1 | 60.9 (active) |
| CMPK1 | Rucaparib | OCI-C5x (clear cell) | 2 | 53.5 (active) |
| CMPK1 | Rucaparib | OCI-C5x (clear cell) | 3 | 69.9 (active) |
| CMPK1 | Rucaparib | OCI-P5x (serous) | 1 | 98.1 |
| CMPK1 | Rucaparib | OCI-P5x (serous) | 2 | 83 |
| CMPK1 | Rucaparib | OCI-P5x (serous) | 3 | 102 |
| CMPK1 | Vehicle | OCI-C5x (clear cell) | 1 | 69.8 (active) |
| CMPK1 | Vehicle | OCI-C5x (clear cell) | 2 | 59.6 (active) |
| CMPK1 | Vehicle | OCI-C5x (clear cell) | 3 | 48.9 (active) |
| CMPK1 | Vehicle | OCI-P5x (serous) | 1 | 94.5 |
| CMPK1 | Vehicle | OCI-P5x (serous) | 2 | 71.9 (active) |
| CMPK1 | Vehicle | OCI-P5x (serous) | 3 | 62.7 (active) |
| KDM6A | Rucaparib | OCI-C5x (clear cell) | 1 | 55.6 (active) |
| KDM6A | Rucaparib | OCI-C5x (clear cell) | 2 | 38.9 (active) |
| KDM6A | Rucaparib | OCI-C5x (clear cell) | 3 | 55.1 (active) |
| KDM6A | Rucaparib | OCI-P5x (serous) | 1 | 64.1 (active) |
| KDM6A | Rucaparib | OCI-P5x (serous) | 2 | 55.3 (active) |
| KDM6A | Rucaparib | OCI-P5x (serous) | 3 | 55.4 (active) |
| KDM6A | Vehicle | OCI-C5x (clear cell) | 1 | 63.2 (active) |
| KDM6A | Vehicle | OCI-C5x (clear cell) | 2 | 69.5 (active) |
| KDM6A | Vehicle | OCI-C5x (clear cell) | 3 | 64.8 (active) |
| KDM6A | Vehicle | OCI-P5x (serous) | 1 | 72.7 (active) |
| KDM6A | Vehicle | OCI-P5x (serous) | 2 | 67.3 (active) |
| KDM6A | Vehicle | OCI-P5x (serous) | 3 | 74.9 (active) |
| DGKE | Rucaparib | OCI-C5x (clear cell) | 1 | 50 (active) |
| DGKE | Rucaparib | OCI-C5x (clear cell) | 2 | 61.5 (active) |
| DGKE | Rucaparib | OCI-C5x (clear cell) | 3 | 67.1 (active) |
| DGKE | Rucaparib | OCI-P5x (serous) | 1 | 96.3 |
| DGKE | Rucaparib | OCI-P5x (serous) | 2 | 102 |
| DGKE | Rucaparib | OCI-P5x (serous) | 3 | 90.7 |
| DGKE | Vehicle | OCI-C5x (clear cell) | 1 | 71.1 (active) |
| DGKE | Vehicle | OCI-C5x (clear cell) | 2 | 64.4 (active) |
| DGKE | Vehicle | OCI-C5x (clear cell) | 3 | 61.7 (active) |
| DGKE | Vehicle | OCI-P5x (serous) | 1 | 96.9 |
| DGKE | Vehicle | OCI-P5x (serous) | 2 | 98.3 |
| DGKE | Vehicle | OCI-P5x (serous) | 3 | 98.3 |
| SYK | Rucaparib | OCI-C5x (clear cell) | 1 | 69.1 (active) |
| SYK | Rucaparib | OCI-C5x (clear cell) | 2 | 69.2 (active) |
| SYK | Rucaparib | OCI-C5x (clear cell) | 3 | 89.2 |
| SYK | Rucaparib | OCI-P5x (serous) | 1 | 68.9 (active) |
| SYK | Rucaparib | OCI-P5x (serous) | 2 | 75.5 (active) |
| SYK | Rucaparib | OCI-P5x (serous) | 3 | 84 |
| SYK | Vehicle | OCI-C5x (clear cell) | 1 | 91 |
| SYK | Vehicle | OCI-C5x (clear cell) | 2 | 77.6 (active) |
| SYK | Vehicle | OCI-C5x (clear cell) | 3 | 63 (active) |
| SYK | Vehicle | OCI-P5x (serous) | 1 | 86 |
| SYK | Vehicle | OCI-P5x (serous) | 2 | 93 |
| SYK | Vehicle | OCI-P5x (serous) | 3 | 79.1 (active) |
| CASK | Rucaparib | OCI-C5x (clear cell) | 1 | 59.9 (active) |
| CASK | Rucaparib | OCI-C5x (clear cell) | 2 | 74.6 (active) |
| CASK | Rucaparib | OCI-C5x (clear cell) | 3 | 80.9 |
| CASK | Rucaparib | OCI-P5x (serous) | 1 | 92 |
| CASK | Rucaparib | OCI-P5x (serous) | 2 | 98.4 |
| CASK | Rucaparib | OCI-P5x (serous) | 3 | 79.7 (active) |
| CASK | Vehicle | OCI-C5x (clear cell) | 1 | 72.9 (active) |
| CASK | Vehicle | OCI-C5x (clear cell) | 2 | 58.6 (active) |
| CASK | Vehicle | OCI-C5x (clear cell) | 3 | 68.9 (active) |
| CASK | Vehicle | OCI-P5x (serous) | 1 | 105 |
| CASK | Vehicle | OCI-P5x (serous) | 2 | 111 |
| CASK | Vehicle | OCI-P5x (serous) | 3 | 85.6 |
| MCCC1 | Rucaparib | OCI-C5x (clear cell) | 1 | 58.7 (active) |
| MCCC1 | Rucaparib | OCI-C5x (clear cell) | 2 | 44.3 (active) |
| MCCC1 | Rucaparib | OCI-C5x (clear cell) | 3 | 55.6 (active) |
| MCCC1 | Rucaparib | OCI-P5x (serous) | 1 | 69.4 (active) |
| MCCC1 | Rucaparib | OCI-P5x (serous) | 2 | 77.1 (active) |
| MCCC1 | Rucaparib | OCI-P5x (serous) | 3 | 93.3 |
| MCCC1 | Vehicle | OCI-C5x (clear cell) | 1 | 83.6 |
| MCCC1 | Vehicle | OCI-C5x (clear cell) | 2 | 68.8 (active) |
| MCCC1 | Vehicle | OCI-C5x (clear cell) | 3 | 71.4 (active) |
| MCCC1 | Vehicle | OCI-P5x (serous) | 1 | 83.7 |
| MCCC1 | Vehicle | OCI-P5x (serous) | 2 | 84.8 |
| MCCC1 | Vehicle | OCI-P5x (serous) | 3 | 83.7 |
| GRK5 | Rucaparib | OCI-C5x (clear cell) | 1 | 60.2 (active) |
| GRK5 | Rucaparib | OCI-C5x (clear cell) | 2 | 67.1 (active) |
| GRK5 | Rucaparib | OCI-C5x (clear cell) | 3 | 48.7 (active) |
| GRK5 | Rucaparib | OCI-P5x (serous) | 1 | 117 |
| GRK5 | Rucaparib | OCI-P5x (serous) | 2 | 129 |
| GRK5 | Rucaparib | OCI-P5x (serous) | 3 | 122 |
| GRK5 | Vehicle | OCI-C5x (clear cell) | 1 | 72.5 (active) |
| GRK5 | Vehicle | OCI-C5x (clear cell) | 2 | 59 (active) |
| GRK5 | Vehicle | OCI-C5x (clear cell) | 3 | 59.5 (active) |
| GRK5 | Vehicle | OCI-P5x (serous) | 1 | 128 |
| GRK5 | Vehicle | OCI-P5x (serous) | 2 | 88.8 |
| GRK5 | Vehicle | OCI-P5x (serous) | 3 | 116 |

No new results follow: an excerpt of the list.
| target gene | rucaparib or vehicle | cell line | technical replicate | viability, normalised (%) |
| --- | --- | --- | --- | --- |
| GRK5 | Rucaparib | OCI-C5x (clear cell) | 2 | 67.1 (active) |
| GRK5 | Rucaparib | OCI-C5x (clear cell) | 3 | 48.7 (active) |
| GRK5 | Rucaparib | OCI-P5x (serous) | 1 | 117 |
| GRK5 | Rucaparib | OCI-P5x (serous) | 2 | 129 |
